Test results reported in US20060003965A1, “N-acetyl-d-glucosamine (nag) supplemented food products and beverages” (priority 2002, published 2006).
The name of at least one read-out is uncertain.

What was measured:
Format in all cases: physicochemical
[1] = Glucosamine recovery following heating, HPAEC-PAD
[2] = NAG recovery following heating, acid extraction method, HPLC
Method: Food samples were homogenized prior to analysis. Where possible, samples were frozen or dried and ground. Baked goods were crumbled and mixed to produce a homogeneous material. Suitable blanks (samples with no added NAG) of each food type were analyzed to assess interferences. Mass changes between unheated ingredient mixtures and baked final products were tracked to permit accurate recovery calculations.
A food or beverage sample as described in the preceding examples containing 5 to 20 mg of N-acetylglucosamine (NAG) was dispersed in 25 g of 0.1 N HCl in a 50-mL polypropylene centrifuge tube and capped tightly. The sample was mixed for 30 seconds using a vortex mixer, then placed in a water bath at 37° C. The sample was removed from the water bath at 15-minute intervals and mixed for 30 seconds on a vortex mixer and then returned to the water bath. This cycle was repeated until the sample had been in the water bath for one hour. After heating, the sample was mixed for 30 seconds on a vortex mixer, then centrifuged for 10 minutes to separate the liquid and solid phases. Fats, oils or lipids in the sample formed a third layer at the top of the tube. The aqueous portion of the sample was filtered through a 0.2μ filter into an HPLC vial, then capped.
NAG recovery was determined using high performance liquid chromatography (HPLC) using a combination of refractive index and UV (195 nm) detection. The system included a SIL-10AXL autosampler, SCL-10AVP controller, LC-10AT pump, CTO-6A column oven, SPD-M10AVP diode-array detector, and a RID-6A refractive index detector, all from Shimadzu Scientific Instruments, Inc. (Columbia, Md.). The column was a MetaCarb H Plus, 300×7.8 mm, from Varian, Inc. (Torrence, Calif.).
The eluent, 0.01N sulfuric acid in water, flow rate was 0.4 mL/min. The column was maintained at 70° C. A 10 μL injection volume was used. NAG eluted at 23.9 minutes and was well resolved from other species in the samples. Multiple standards confirmed good linearity over the concentration range of interest. The LW spectrum from 190 to 350 nm indicated no measurable co-eluting peaks, and the retention time and ratio of responses between the detectors confirmed the identity of NAG.

[3] = NAG recovery, AOAC method, HPLC
[4] = Bread mix (Example 9), 250° F./121° C., 50 min
[5] = Chocolate morsels (Example 4), 52° C., 1 min
[6] = Corn muffin mix (Example 7), 400° F./204° C., 18 min
[7] = Sugar cookies (Example 2), 375° F./191° C., 10 min
[8] = Tea (Example 12), 71° C., 20 min
[9] = Tea (Example 12), 90° C., 20 sec

Cl.N[C@H]1C(O)O[C@H](CO)[C@@H](O)[C@@H]1O (stereo partly shown) [GlcNHCl, glucosamine hydrochloride]
GlcNHCl % recovery following heating [1, 4]: 46%
GlcNHCl % recovery following heating [1, 5]: 97%
GlcNHCl % recovery following heating [1, 6]: 13%
GlcNHCl % recovery following heating ([1]; Rice Krispies (Example 1), 165° F./74° C., <10 min): 106%
GlcNHCl % recovery following heating [1, 7]: 50%
GlcNHCl % recovery following heating [1, 8]: 100%
GlcNHCl % recovery following heating [1, 9]: 94%
GlcNHCl % recovery following heating ([1]; Tea (Example 12), boil, 5 min): 93%
GlcNHCl % recovery ([1]; Tea (Example 12), room temp): 96%
amount of recovery for GLCN, range over Table 14 samples ([1]; all foods and beverages of Table 14): 13%-100%

CC(=O)N[C@H]1C(O)O[C@H](CO)[C@@H](O)[C@@H]1O (stereo partly drawn) [NAG, N-Acetyl-D-glucosamine]
NAG % recovery following heating [2, 4]: 100%
NAG % recovery following heating [2, 5]: 97%
NAG % recovery following heating [2, 6]: 77%
NAG % recovery following heating [2, 7]: 77%
NAG % recovery following heating [2, 8]: 98%
NAG % recovery following heating [2, 9]: 98%
NAG % recovery following heating ([2]; Tea (Example 12), boil, 5 min): 96%
NAG % recovery ([2]; Tea (Example 12), room temp): 98%
recovery of NAG, AOAC method ([3]; baked bread): 80%
recovery of NAG, AOAC method ([3]; baked cookies): 68%
recovery of NAG, AOAC method ([3]; dry bread mix): 93%
recovery of NAG, AOAC method ([3]; dry cookie mix): 78%
